Data: PubChem BioAssay AID1671190 (National Center for Advancing Translational Sciences (NCATS), 2021)
Out of some 580,000 compounds screened, about 6,100 (1.1%) were called active. Inconclusive results, whose numbers are uncertain, are shown with a selection of clear calls. Calls come from the whole dose curve; as a rule, active = well fitted inhibition curve with a large enough effect; inconclusive = small, poorly fitted or top-dose-only effect, or another doubt; inactive = no such curve, though single readings can be large or run the other way. A potency beside an inconclusive call is a rough fit, not a confirmed value.

The chains behind the UniProt entries cited, without tags or fusion partners. Where a name states a change or a piece, a line headed by the entry shows the natural chain unless it says otherwise.
UniProt P18054: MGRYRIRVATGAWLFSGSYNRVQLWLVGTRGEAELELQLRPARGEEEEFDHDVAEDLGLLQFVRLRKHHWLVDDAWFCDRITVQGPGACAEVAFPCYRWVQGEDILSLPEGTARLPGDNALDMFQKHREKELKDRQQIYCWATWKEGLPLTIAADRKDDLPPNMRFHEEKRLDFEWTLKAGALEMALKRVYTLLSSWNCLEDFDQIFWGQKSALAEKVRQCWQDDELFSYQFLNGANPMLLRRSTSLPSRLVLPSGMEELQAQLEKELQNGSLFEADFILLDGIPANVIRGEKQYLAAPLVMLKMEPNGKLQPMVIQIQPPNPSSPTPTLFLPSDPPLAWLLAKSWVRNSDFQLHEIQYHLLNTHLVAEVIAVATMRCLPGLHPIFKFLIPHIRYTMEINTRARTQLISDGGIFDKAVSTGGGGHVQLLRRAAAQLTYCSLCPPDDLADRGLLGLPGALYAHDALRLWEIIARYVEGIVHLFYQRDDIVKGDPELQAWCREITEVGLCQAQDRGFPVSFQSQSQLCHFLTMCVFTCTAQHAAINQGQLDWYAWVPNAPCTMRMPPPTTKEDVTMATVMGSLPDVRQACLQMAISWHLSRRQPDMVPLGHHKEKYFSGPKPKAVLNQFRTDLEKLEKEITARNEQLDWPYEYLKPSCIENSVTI

Target: Polyunsaturated fatty acid lipoxygenase ALOX12 (Homo sapiens) (UniProt P18054)
Assay: Primary qHTS assay for inhibitors of human arachidonate 12S-lipoxygenase (ALOX12): Round 2
Conditions: purified 12hLO, xylenol orange hydroperoxide absorbance; activity change, negative = inhibition: at 108 µM (top of the series) unless noted
Outline: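 Hydroperoxide product was detected by ferrous iron/xylenol orange as the 573 to 405 nm absorbance ratio. Arachidonic acid at 40 uM (final) was turned over for 30 min at room temperature by 150 nM human 12hLO, pH 7.0 Hepes buffer, after 15 min compound preincubation.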
% is set by controls: 0 for no effect and ±100 for the full control effect; potency is the fitted concentration of half-maximal effect.

| SMILES | Potency | activity change, negative = inhibition |
| --- | --- | --- |
| CCOc1cc(CNn2cn[nH]c2=S)cc(Cl)c1OCc1ccccc1F | inconclusive: 79.4 µM [inhibitor, partial curve, poor fit] | – |
| CCOC(=O)Nc1ccc2c(c1)N(C(=O)CN1CCN(C)CC1)c1ccccc1S2 | inconclusive: 4.47 µM [inhibitor, full curve, poor fit] | – |
| O=C(CSc1ncccc1-c1nc2ccccc2[nH]1)NCc1ccco1 | active: 14.1 µM | – |
| O=C(CC(=O)c1ccccc1O)c1ccc(F)cc1 | – | inactive: 6.28% |
| COC(=O)c1ccc2nc(-c3ccc(OC)c(OC)c3)c(CC3CCCCC3)n2c1 | inconclusive: 50.1 µM [inhibitor, partial curve, poor fit] | – |
| OCc1cccc[n+]1CCc1ccccc1 | inconclusive: 35.5 µM [inhibitor, single point] | – |
| NC(=O)NNC(=S)Nc1ccccc1 | inconclusive: 50.1 µM [inhibitor, partial curve, poor fit] | – |
| O=C(COc1ccccc1)NCCC1CCN(C(=O)Nc2ccccc2)CC1 | – | inactive: 51.3% |
| CCCCc1c(C)nc2ccc(OC)cc2c1SCCC(=O)O | active: 44.7 µM | – |
| S=C(Nc1ccc(Cl)cc1)Nc1ccc2c(c1)OCCO2 | inconclusive: 44.7 µM [inhibitor, partial curve, poor fit] | – |
| Cc1cccc(S(=O)(=O)N(C)C[C@H]2OCc3cn(nn3)CCCC(=O)N([C@@H](C)CO)C[C@@H]2C)c1 | inconclusive: 39.8 µM [inhibitor, partial curve, poor fit] | – |
| c1coc(CNCCCN2CCCCC2)c1 | inconclusive: 5.62 µM [inhibitor, full curve, poor fit] | – |
| CNc1ccc(C=C2C=Cc3ccccc32)cc1 | inconclusive: 79.4 µM [inhibitor, single point] | – |
| CCCCN(C)CCCNC(=O)Cn1ncc2c3ccccc3n(Cc3cc(C)ccc3C)c2c1=O | inconclusive: 50.1 µM [inhibitor, partial curve, poor fit] | – |
| CCN(CC)CCCNC(=O)c1nn(-c2ccc(C)cc2)c(=O)c2c1c1ccccc1n2C | inconclusive: 63.1 µM [inhibitor, partial curve, poor fit] | – |
| Cn1cc(CN2CCOc3cc([S+](=O)([O-])Nc4nncs4)ccc3C2)cn1 | inconclusive: 44.7 µM [inhibitor, partial curve] | – |
| CCOc1ccc(CNS(=O)(=O)c2ccc(-c3coc(C)n3)cc2)cc1OC | – | inactive: -22.8% |
| O=C(NCc1cccnc1)[C@@H]1C[C@H](c2ccc(F)cc2)N(Cc2ccccc2Cl)C1 | inconclusive: 100 µM [inhibitor, partial curve] | – |
| C#CCOC(=O)CCC(=O)NCCc1ccccc1 | inconclusive: 2.24 µM [inhibitor, full curve, poor fit] | – |
| O=C(c1ccc(C(F)(F)F)cc1)N1CCC2(CC1)CN[S+](=O)([O-])c1ccccc1N2 | inconclusive: 15.8 µM [inhibitor, full curve, poor fit] | – |
| CCOC(=O)c1ccc(NC(=O)N(C)Cc2nc(-c3ccccc3C)oc2C)cc1 | inconclusive: 126 µM [inhibitor, single point] | – |
| CCO[C@@H]1OC(C(=O)NCc2ccccc2)=C[C@H](c2cn(C(C)=O)c3ccccc23)[C@H]1CCCO | inconclusive: 10 µM [inhibitor, partial curve, poor fit] | – |

| SMILES | Potency | activity change, negative = inhibition |
| --- | --- | --- |
| CCCC(=O)NCCc1c(I)[nH]c2ccc(OC)cc12 | inconclusive: 100 µM [inhibitor, single point] | – |
| C=CCOc1ccc(CN(C)C(=O)c2ccc(CNS(=O)(=O)c3ccc(C)c(C)c3)cc2)cc1 | – | inactive: 20.2% |
| O=C(CCC1CCCN(S(=O)(=O)c2ccccc2F)C1)NC1CCCCC1 (centres undefined) | – | inactive: 28.9% |
| NC(=S)NNC(=O)Nc1ccccc1 | inconclusive: 10 µM [inhibitor, partial curve, poor fit] | – |
| COc1ccc(CNC(=O)CN2C(=O)C(C)=C(c3ccc(C)c(C)c3)S2(=O)=O)c(OC)c1 | inconclusive: 126 µM [inhibitor, single point] | – |
| CCC(=O)N1c2ccc(S(=O)(=O)CCC(=O)Nc3ccc(Br)c(C)c3)cc2CC1C (centres undefined) | inconclusive: 50.1 µM [inhibitor, partial curve, poor fit] | – |
| CCCCNC(=O)C1(C)CCCCN1C(=O)c1ccc2c(c1)CCO2 (centres undefined) | inconclusive: 8.91 µM [inhibitor, full curve, poor fit] | – |
| O=S(=O)(c1ccccc1)n1ccc(-c2cnc(-c3ccccc3)s2)n1 | inconclusive: 112 µM [inhibitor, partial curve, poor fit] | – |
| CCC1Oc2ccc(NC(=O)C(CC)c3ccccc3)cc2CN(Cc2ccc(OC)cc2)C1=O (centres undefined) | inconclusive: 35.5 µM [inhibitor, single point] | – |
| O=C(O)c1cccc(-n2cccc2C=C2C(=O)c3ccccc3C2=O)c1 | inconclusive: 44.7 µM [inhibitor, partial curve, poor fit] | – |
| CCC(C)c1ccc(NC(=S)Nc2ccc(OC)cc2)cc1 (centres undefined) | active: 44.7 µM | – |
| Nn1c(SCc2cccc(F)c2)nnc1-c1cccnc1 | inconclusive: 79.4 µM [inhibitor, single point] | – |
| CCOCCCN(Cc1ccco1)C(=O)c1cc2c(=O)[nH]c3ccc(C)cc3c2s1 | inactive | – |
| CC(C)CN1C(=O)C(C)(C)[S+](=O)([O-])[C@@H]2CN(Cc3ccncc3)C[C@@H]21 | inconclusive: 28.2 µM [inhibitor, full curve] | – |
| Cc1ccc(Nc2nnc(SCC3CCCCO3)s2)cc1 (centres undefined) | – | inactive: -6.46% |
| CN(CC(=O)NC(=O)NC1CCCCC1)C(c1ccccc1)c1ccccc1 | inconclusive: 17.8 µM [inhibitor, full curve, poor fit] | – |
| COc1ccc(Oc2coc3cc(OC(=O)c4ccco4)ccc3c2=O)cc1 | inconclusive: 3.98 µM [inhibitor, full curve, poor fit] | – |
| COc1ccc2c(c1)-c1ccccc1S(=O)(=O)N2C(C)=O | inconclusive: 20 µM [inhibitor, partial curve, poor fit] | – |
| CNC(=S)N/N=C/c1cn(CCOc2cccc(OC)c2)c2ccccc12 | active: 35.5 µM | – |
| N#Cc1ccc(-c2csc(-c3ccncc3)n2)cc1 | inconclusive: 35.5 µM [inhibitor, partial curve, poor fit] | – |
| Cc1ccc(Cl)cc1N1CCN(C(=O)CN2C(=O)CSc3c2c(C)nn3-c2ccccc2)CC1 | inconclusive: 112 µM [inhibitor, partial curve, poor fit] | – |
| O=C(NCc1cccnc1)C1CC(c2ccccc2O)=NO1 (centres undefined) | – | inactive: 2.18% |

| SMILES | Potency | activity change, negative = inhibition |
| --- | --- | --- |
| COc1cccc(-c2cc3c(=O)n(CCNC(=O)c4ccc(C)cc4)ccn3n2)c1 | inconclusive: 56.2 µM [inhibitor, partial curve, poor fit] | – |
| O=[N+]([O-])c1cc(Cl)ccc1N1CCCC1 | – | inactive: -9.2% |
| CC1(C)c2ccccc2-c2nc3ccccc3cc2C1O (centres undefined) | inconclusive: 50.1 µM [inhibitor, partial curve, poor fit] | – |
| CCCN(CCO)Cc1ccc(Cl)c(Cl)c1 | inconclusive: 1.12 µM [inhibitor, full curve, poor fit] | – |
| CC(C)c1nc2c(c(-c3ccc(O)cc3)n1)CN(CC1CC1)CC2 | inconclusive: 25.1 µM [inhibitor, full curve] | – |
| COC(=O)c1ccccc1NC(=O)Cn1c(=O)n(-c2cccc(C(F)(F)F)c2)c(=O)c2c(C)c(C)sc21 | inconclusive: 112 µM [inhibitor, partial curve, poor fit] | – |
| O=[N+]([O-])c1ccc(Sc2ccncn2)c([N+](=O)[O-])c1 | inconclusive: 56.2 µM [inhibitor, partial curve, poor fit] | – |
| CCCc1nc2ccc(C(=O)OC)cn2c1Cc1ccccc1C(F)(F)F | inconclusive: 25.1 µM [inhibitor, partial curve, poor fit] | – |
| COCCCNC(=O)c1ccc(Cn2c(SCc3cccc(C)c3)nc3cccnc32)cc1 | – | inactive: -16.2% |
| O=C(NC1CCCCC1)N[C@H]1CO[C@H]2[C@@H]1OC[C@@H]2n1cc(-c2ccccn2)nn1 | inconclusive: 25.1 µM [inhibitor, full curve] | – |
| CC(=O)Nc1ccc(C(=O)OCC(=O)N2CCN(C(=O)c3ccco3)CC2)cc1 | – | inactive: 12.1% |
| C=CSc1sc(Cl)c(N2CCOCC2)c1[N+](=O)[O-] | – | inactive: -10.9% |
| CCn1c(COc2ccc3c(c2)OCO3)nnc1SCC(=O)O | inconclusive: 31.6 µM [inhibitor, partial curve, poor fit] | – |
| CSc1ccccc1OCc1cc(C(=O)N(C)CCn2nc(C)cc2C)no1 | inconclusive: 100 µM [inhibitor, single point] | – |
| CCC(c1ccccc1)N1Cc2cc(NS(=O)(=O)c3ccc(F)cc3)ccc2OC(C)C1=O (centres undefined) | inconclusive: 39.8 µM [inhibitor, partial curve, poor fit] | – |
| O=C(CC12CC3CC(CC(C3)C1)C2)NC(=S)N1CCCCC1 | inconclusive: 35.5 µM [inhibitor, partial curve] | – |
| Cn1c(C(=O)N2CCN(C(=O)c3ccccc3)CC2)cc2ccccc21 | inconclusive: 89.1 µM [inhibitor, single point] | – |
| Cc1cc(-c2ccc(C=O)o2)ccc1Br | inconclusive: 35.5 µM [inhibitor, partial curve, poor fit] | – |
| S=C(Nc1ccccc1Cl)NC1CC1 | inconclusive: 2.24 µM [inhibitor, full curve, poor fit] | – |

Quoted at random: five records from the list

| SMILES | Potency | activity change, negative = inhibition |
| --- | --- | --- |
| O=C(CC(=O)c1ccccc1O)c1ccc(F)cc1 | – | inactive: 6.28% |
| COC(=O)c1ccc2nc(-c3ccc(OC)c(OC)c3)c(CC3CCCCC3)n2c1 | inconclusive: 50.1 µM [inhibitor, partial curve, poor fit] | – |
| Cn1c(C(=O)N2CCN(C(=O)c3ccccc3)CC2)cc2ccccc21 | inconclusive: 89.1 µM [inhibitor, single point] | – |
| CCCC(=O)NCCc1c(I)[nH]c2ccc(OC)cc12 | inconclusive: 100 µM [inhibitor, single point] | – |
| CCC(C)c1ccc(NC(=S)Nc2ccc(OC)cc2)cc1 (centres undefined) | active: 44.7 µM | – |
